Results published in paper doi:10.1101/2021.06.29.450327.
No constants are given. Whether binding was seen depends on the method and setting. In cells and extracts the contact can be indirect. Binding can be weak; no strength is given. For some assays here: Where a sequence is shown, tags or fusion partners need not be part of it.

By UniProt entry, the sequences of proteins in these tests, tags left out. Where a name states a change or a piece, a line headed by the entry shows the natural chain unless it says otherwise.
UniProt P28300: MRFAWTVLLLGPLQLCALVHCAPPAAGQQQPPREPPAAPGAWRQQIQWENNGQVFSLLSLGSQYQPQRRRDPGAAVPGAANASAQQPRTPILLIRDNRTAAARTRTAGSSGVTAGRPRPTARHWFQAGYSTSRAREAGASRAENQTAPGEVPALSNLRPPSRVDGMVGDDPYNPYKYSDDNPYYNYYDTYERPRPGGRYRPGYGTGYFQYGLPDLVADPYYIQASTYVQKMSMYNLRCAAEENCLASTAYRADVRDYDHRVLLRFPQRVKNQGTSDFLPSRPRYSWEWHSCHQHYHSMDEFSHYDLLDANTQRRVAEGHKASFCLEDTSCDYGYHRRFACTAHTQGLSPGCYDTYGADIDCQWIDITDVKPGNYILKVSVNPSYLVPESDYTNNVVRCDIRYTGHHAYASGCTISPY
UniProt P28301: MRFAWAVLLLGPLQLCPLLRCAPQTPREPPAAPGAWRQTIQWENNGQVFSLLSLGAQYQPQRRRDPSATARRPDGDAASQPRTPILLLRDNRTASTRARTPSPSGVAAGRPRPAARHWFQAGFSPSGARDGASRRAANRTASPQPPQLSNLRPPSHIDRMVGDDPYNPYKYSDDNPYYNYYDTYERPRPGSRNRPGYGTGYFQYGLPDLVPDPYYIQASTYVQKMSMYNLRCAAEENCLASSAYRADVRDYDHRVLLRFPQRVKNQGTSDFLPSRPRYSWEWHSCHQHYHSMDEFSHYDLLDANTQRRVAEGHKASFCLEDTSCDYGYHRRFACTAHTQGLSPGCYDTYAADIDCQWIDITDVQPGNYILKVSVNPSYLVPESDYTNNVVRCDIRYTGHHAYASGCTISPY

Key:
[1] = target: T1, endogenous Meflin (human fibroblasts) (human (endogenous in fHDF/TERT166 and NHDF fibroblasts)) (UniProt O14498); assay: co-IP
T1 sequence: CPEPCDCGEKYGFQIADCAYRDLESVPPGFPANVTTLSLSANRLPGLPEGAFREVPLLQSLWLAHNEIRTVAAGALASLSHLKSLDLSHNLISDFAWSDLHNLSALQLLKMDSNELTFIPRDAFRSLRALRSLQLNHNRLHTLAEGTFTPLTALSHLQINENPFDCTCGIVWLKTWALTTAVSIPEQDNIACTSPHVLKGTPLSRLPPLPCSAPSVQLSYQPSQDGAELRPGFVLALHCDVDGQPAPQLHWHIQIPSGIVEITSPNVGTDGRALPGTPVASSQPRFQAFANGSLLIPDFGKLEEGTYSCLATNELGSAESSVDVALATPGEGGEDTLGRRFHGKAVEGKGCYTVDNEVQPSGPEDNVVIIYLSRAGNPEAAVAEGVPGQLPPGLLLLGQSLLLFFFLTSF

[2] = target: T2, HA-Meflin (mouse Meflin, mMeflin) (mouse) (UniProt Q6GU68); assay: co-IP
T2 sequence: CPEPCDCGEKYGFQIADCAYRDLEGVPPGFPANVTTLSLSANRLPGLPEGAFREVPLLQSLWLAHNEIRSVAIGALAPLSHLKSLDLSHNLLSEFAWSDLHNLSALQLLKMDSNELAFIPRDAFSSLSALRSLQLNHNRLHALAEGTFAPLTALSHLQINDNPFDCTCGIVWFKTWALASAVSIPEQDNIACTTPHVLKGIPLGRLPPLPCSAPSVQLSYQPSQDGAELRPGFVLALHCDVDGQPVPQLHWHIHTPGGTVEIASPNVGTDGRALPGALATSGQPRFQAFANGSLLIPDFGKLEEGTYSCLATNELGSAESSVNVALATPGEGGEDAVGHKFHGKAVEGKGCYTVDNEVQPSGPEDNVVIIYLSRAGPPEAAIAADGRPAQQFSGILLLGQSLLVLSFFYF

| Substance | binding [1] | binding [2] |
| --- | --- | --- |
| endogenous Lox (human fibroblasts) (from UniProt P28300) (enzyme) | binds |  |
| mouse Lox (mLox) (from UniProt P28301) (enzyme) |  | binds |
